These are yes or no findings as the source states them, for the method shown. In cells and extracts the contact can be indirect. Here binding means that the protein was enriched with, or labelled near, the bait; the list need not be complete.
Target: T1, ubiquitin-like, containing PHD and RING finger domain, 1 (UHRF1) (human (endogenous in MOLT4 and REH)) (UniProt Q96T88)
T1 sequence: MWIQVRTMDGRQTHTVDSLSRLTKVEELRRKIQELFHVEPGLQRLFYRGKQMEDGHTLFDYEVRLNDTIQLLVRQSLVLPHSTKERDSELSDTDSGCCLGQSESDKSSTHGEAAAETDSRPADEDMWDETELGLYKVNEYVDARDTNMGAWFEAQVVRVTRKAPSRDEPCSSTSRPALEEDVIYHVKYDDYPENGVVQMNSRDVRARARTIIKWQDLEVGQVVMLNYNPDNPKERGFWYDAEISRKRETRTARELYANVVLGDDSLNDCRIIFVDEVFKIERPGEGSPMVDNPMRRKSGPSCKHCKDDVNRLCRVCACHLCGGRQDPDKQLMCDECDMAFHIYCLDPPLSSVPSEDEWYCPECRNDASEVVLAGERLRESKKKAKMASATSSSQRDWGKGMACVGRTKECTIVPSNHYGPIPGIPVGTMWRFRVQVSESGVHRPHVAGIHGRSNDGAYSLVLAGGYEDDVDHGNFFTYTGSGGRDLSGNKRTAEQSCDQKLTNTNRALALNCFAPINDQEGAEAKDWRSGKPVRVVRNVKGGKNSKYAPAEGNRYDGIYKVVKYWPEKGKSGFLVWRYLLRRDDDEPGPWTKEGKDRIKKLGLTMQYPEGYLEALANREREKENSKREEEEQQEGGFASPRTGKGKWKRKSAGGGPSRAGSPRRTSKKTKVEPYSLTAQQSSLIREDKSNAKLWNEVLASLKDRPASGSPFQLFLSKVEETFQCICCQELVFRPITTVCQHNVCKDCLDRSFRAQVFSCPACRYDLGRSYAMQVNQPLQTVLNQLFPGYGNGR
Test: affinity purification with mass spectrometry; anti-UHRF1 IP and anti-IgG IP from REH cells on SDS-PAGE, Zn stain; bands at 90 kDa (UHRF1) and 50 kDa (cMyc) cut, in-gel digested with trypsin, LC-MS/MS (Orbitrap ELITE), FDR = 0.01

Protein sequences, listed by entry. Tags and fused reporters are not part of them.
UniProt P01106: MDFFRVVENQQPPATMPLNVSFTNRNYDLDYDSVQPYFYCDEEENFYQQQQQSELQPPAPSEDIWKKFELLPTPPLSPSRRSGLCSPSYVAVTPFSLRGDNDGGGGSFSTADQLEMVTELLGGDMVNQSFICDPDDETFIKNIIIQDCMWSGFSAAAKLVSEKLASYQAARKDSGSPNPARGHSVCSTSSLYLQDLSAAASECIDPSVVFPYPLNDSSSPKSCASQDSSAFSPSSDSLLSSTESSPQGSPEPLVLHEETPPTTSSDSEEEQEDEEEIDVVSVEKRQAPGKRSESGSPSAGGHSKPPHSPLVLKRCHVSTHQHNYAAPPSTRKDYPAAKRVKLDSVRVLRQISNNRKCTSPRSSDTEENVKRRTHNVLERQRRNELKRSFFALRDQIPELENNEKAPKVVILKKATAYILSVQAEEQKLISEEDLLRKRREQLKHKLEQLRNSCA

Q: Which binding does the source give for c-Myc (from UniProt P01106 1-454) here?
A: The binding was “binds”.
